# Results published in patent US20040241239A1, “Mixed complexes for masking the taste of bitter active substances” (priority 2001, published 2004).
# Experiment: Acceptance test of HMR 3647 (taste of aqueous dispersion in the mouth)
# Assay type: in vivo
# Settings: oral application, 1 ml of aqueous dispersion for one minute in the mouth
compound,measurement,value
CC[C@H]1OC(=O)[C@H](C)C(=O)[C@H](C)[C@@H](O[C@@H]2O[C@H](C)C[C@H](N(C)C)[C@H]2O)[C@](C)(OC)C[C@@H](C)C(=O)[C@H](C)[C@H]2N(CCCCn3cnc(-c4cccnc4)c3)C(=O)O[C@]12C [HMR 3647],concentration starting from which all test persons found the taste unacceptable,≥ 10 µg/mL
same,concentration starting from which the product was found unacceptable,≥ 2.5 µg/mL
